According to PMC11930424:
No constants are given. Whether binding was seen depends on the method and setting. In cells and extracts the contact can be indirect. Some entries that bind do so weakly or less than the wild type. For some of these results: Sequences can lack the tags named with a protein. One block for each molecule: values may come before it.

The chains behind the UniProt entries cited, without tags or fusion partners.
UniProt Q8N6T7: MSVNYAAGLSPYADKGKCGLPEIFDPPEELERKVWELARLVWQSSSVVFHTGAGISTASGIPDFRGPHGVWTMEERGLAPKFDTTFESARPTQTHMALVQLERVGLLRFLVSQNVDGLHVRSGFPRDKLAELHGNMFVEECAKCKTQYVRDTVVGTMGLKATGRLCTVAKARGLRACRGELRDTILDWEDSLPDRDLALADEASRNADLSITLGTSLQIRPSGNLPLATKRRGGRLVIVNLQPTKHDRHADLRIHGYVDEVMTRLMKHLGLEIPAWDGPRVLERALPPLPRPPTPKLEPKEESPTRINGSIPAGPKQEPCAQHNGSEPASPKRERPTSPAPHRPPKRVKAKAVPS
UniProt P01106: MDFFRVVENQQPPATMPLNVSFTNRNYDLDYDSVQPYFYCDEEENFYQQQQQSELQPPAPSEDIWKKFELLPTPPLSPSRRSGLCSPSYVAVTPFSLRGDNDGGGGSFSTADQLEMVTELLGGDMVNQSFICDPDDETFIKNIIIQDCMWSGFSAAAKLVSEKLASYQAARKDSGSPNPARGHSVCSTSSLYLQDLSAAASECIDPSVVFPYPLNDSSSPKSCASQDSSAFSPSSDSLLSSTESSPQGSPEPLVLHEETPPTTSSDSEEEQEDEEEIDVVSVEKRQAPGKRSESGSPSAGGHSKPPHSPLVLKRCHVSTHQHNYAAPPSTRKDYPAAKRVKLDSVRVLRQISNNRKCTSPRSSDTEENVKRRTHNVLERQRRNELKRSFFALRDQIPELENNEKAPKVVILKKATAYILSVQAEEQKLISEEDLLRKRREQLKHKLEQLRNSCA
UniProt P61244: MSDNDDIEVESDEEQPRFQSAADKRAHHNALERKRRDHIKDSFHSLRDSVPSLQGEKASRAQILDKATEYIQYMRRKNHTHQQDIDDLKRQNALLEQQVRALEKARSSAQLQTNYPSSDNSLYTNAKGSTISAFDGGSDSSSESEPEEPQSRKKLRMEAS

Assays:
[1] = biological target: Sirtuin 6 (SIRT6), endogenous (human (endogenous in MKN-45 and A549)) (UniProt Q8N6T7); assay: proximity ligation; cells transfected with si-GCIP or si-SIRT6 for 24 h, then PLA
[2] = biological target: Sirtuin 6 (SIRT6), endogenous (human (endogenous in MKN-45 and A549)) (UniProt Q8N6T7); assay: co-IP; endogenous proteins; 2 mg cell extract (MKN-45, A549) with 1 ug anti-c-Myc or anti-SIRT6 and protein G agarose beads, 4 °C overnight, Western blot; also after si-GCIP (24 h)
His-tagged GCIP [3] = biological target: T1, His-tagged GCIP (UniProt O95273); assay: proximity ligation; A549 cells transfected with GCIP-His for 24 h; Duolink PLA mouse/rabbit kit; anti-His tag with anti-c-Myc, anti-Max or anti-SIRT6; also with si-Max
T1 sequence: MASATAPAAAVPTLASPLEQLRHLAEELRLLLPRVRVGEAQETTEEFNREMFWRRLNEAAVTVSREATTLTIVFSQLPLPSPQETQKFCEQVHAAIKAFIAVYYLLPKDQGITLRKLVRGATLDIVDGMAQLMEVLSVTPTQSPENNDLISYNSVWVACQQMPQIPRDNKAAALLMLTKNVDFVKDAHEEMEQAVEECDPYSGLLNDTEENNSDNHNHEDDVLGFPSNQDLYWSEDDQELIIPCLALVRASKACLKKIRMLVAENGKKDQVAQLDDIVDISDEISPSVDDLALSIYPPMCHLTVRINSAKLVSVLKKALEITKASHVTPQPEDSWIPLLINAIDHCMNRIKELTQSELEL

His-tagged GCIP [4] = biological target: T1, His-tagged GCIP; assay: pull-down; Nickel sepharose pull-down of GCIP-His from lysates of cells transfected for 24 h, Western blot; also after si-SIRT6 (24 h)
recombinant GST-GCIP = biological target: T2, recombinant GST-GCIP (UniProt O95273); assay: pull-down; cell lysates pulled down by recombinant GST-GCIP in vitro, Western blot; only the target purified
T2 sequence: T1 sequence

[5] = biological target: Sirtuin 6 (SIRT6), endogenous (human (endogenous in MKN-45 and A549)) (UniProt Q8N6T7); assay: co-IP; endogenous proteins; 2 mg cell extract (MKN-45, A549) with 1 ug anti-c-Myc or anti-SIRT6 and protein G agarose beads, 4 °C overnight, Western blot; also after si-GCIP (24 h); remark: listed apart in the source

Molecule: Sirtuin 6 (SIRT6), endogenous (from UniProt Q8N6T7 1-355)
binding (His-tagged GCIP [3]): binds | binding (His-tagged GCIP [4]): binds | binding (recombinant GST-GCIP): binds

B1: Grap2 and CyclinD1 interacting protein (GCIP), endogenous (protein, UniProt O95273 1-360)
chain: T1 sequence
binding [5]: binds

More lines, now with the values ahead:

binding [1]: binds | binding [2]: binds
Molecule: c-Myc, endogenous (from UniProt P01106 1-454)

binding (His-tagged GCIP [3]): binds
Molecule: Max, endogenous (from UniProt P61244 1-160)
